Laboratory results taken from US20110243928A1.
Numbering of substitutions follows the chain as printed. These are yes or no findings as the source states them, for the method shown. Binding calls can cover weak binding; strength is not graded here. Each block holds one binder with its values, some of them ahead of it.

Tests used:
[1] = target: E. coli-expressed recombinant cynomolgus IL-13 (cynomolgus); assay: sandwich ELISA
[2] = target: E. coli-expressed recombinant cynomolgus IL-13 (cynomolgus); assay: BIAcore
[3] = target: E. coli-expressed recombinant cynomolgus IL-13 (cynomolgus); assay: Western blot after denaturing SDS-PAGE
[4] = target: E. coli-expressed recombinant cynomolgus IL-13 (cynomolgus); assay: sandwich ELISA, CHO supernatant and purified antibody

B1: L1+A1 (antibody, human IgG1, kappa, V domains shown)
VH: QVQLVQSGAEVKKPGSSVKVSCKASGFYIKDTYMHWVRQAPGQGLEWMGTIDPANGNTKYVPKFQGRVTITADESTSTAYMELSSLRSEDTAVYYCARSIYDDYHYDDYYAMDYWGQGTLVTVSS
VL: DIVMTQSPLSLPVTPGEPASISCRSSQNIVHINGNTYLEWYLQKPGQSPRLLIYKISDRFSGVPDRFSGSGSGTDFTLKISRVEADDVGIYYCFQGSHVPWTFGQGTKLEIKR
binding [1]: binds

B2: L2+A1 (antibody, human IgG1, kappa, V domains shown)
VH: B1 VH
VL: B1 VL with I90V
binding [1]: binds

The next lines start with the values.

binding [2]: binds
binding [3]: binds
B3: monoclonal antibody 6A1 (antibody, IgG1, V domains shown)
VH: EIQLQQSVAELVRPGASVRLSCTASGFYIKDTYMHWVIQRPEQGLEWIGTIDPANGNTKYVPKFQGKATITADTSSNTAYLRLSSLTSEDTAIYYCARSIYDDYHYDDYYAMDYWGQGTSVTVSS
VL: DVLMTQTPLSLPVSLGDQASISCRSSQNIVHINGNTYLEWYLQKPGQSPKLLIYKISDRFSGVPDRFSGSGSGTDFTLKISRVEAEDLGVYYCFQGSHVPWTFGGGTKLEIK

binding [1]: binds
binding [4]: binds
B4: chimaeric 6A1 (antibody, human IgG1, V domains shown)
VH: B3 VH
VL: B3 VL
